Source: patent US8772200B2, “Nitrogen-containing heterocyclic compound and agricultural fungicide” (Nippon Soda Co., Ltd., priority 2010, dated 2014)
Some results were stated once for a whole list of compounds, not compound by compound. At least one structure is not confirmed: it was looked up by name or label, or the drawing left a doubt.

How the values were obtained:
[1] = tested on: apple scab bacteria (Venturia inaqualis); experiment: Control test of apple scab; type: in vivo; conditions: emulsion, active ingredient 100 ppm, sprayed on apple seedlings before inoculation; held 2 weeks at 20° C.
[2] = tested on: cucumber gray mold bacteria (Botrytis cinerea); experiment: Control test of cucumber gray mold; conditions: emulsion, active ingredient 100 ppm, sprayed on cucumber seedlings before inoculation; held 4 days at 20° C.

Compound | protective value [1] | protective value [2]
Cc1nc2c(F)cccc2c(F)c1Oc1cccc(F)c1C(C)(C)O [compound 127] | at least 75% | at least 75%
CC(C)C(=O)c1c(Cl)cccc1Oc1cnc2c(F)cccc2c1 [compound 377] | at least 75% | at least 75%
CC(=O)C(O[Si](C)(C)C)c1c(Cl)cccc1Oc1cnc2c(F)cccc2c1 (centres unmarked) [compound 170] | at least 75% | at least 75%
CC(C)(CC=O)c1ccccc1Oc1cnc2ccccc2c1 [compound 245] | at least 75% | at least 75%
CC(C)(C)C(=O)c1ccccc1Oc1cnc2ccccc2c1 [compound 11] | at least 75% | at least 75%
OC(c1c(Cl)cccc1Oc1cnc2c(F)cccc2c1)C(F)(F)F (centres unmarked) [compound 159] | at least 75% | at least 75%
CC(C)(CCO)c1ccccc1Oc1cnc2ccccc2c1 [compound 244] | at least 75% | at least 75%
CC(O)C(C)(C)C(C)(C)c1ccccc1Oc1cnc2ccccc2c1 (racemic) [compound 230] | at least 75% | at least 75%
CC(C)(O)c1c(Br)cccc1Oc1cnc2c(F)cccc2c1 [compound 98] | at least 75% | at least 75%
CC(C)C(C)c1ccccc1Oc1cnc2ccccc2c1 (centres unmarked) [compound 278] | at least 75% | at least 75%
COC(C)c1c(Cl)cccc1Oc1cc2ccc(F)cc2nc1C (centres unmarked) [compound 202] | at least 75% | at least 75%
CC(C)(O)c1c(F)cccc1Cc1cnc2ccccc2c1 [compound 323] | at least 75% | at least 75%
COCCC(C)(C)c1ccccc1Oc1cc2cccc(F)c2nc1C [compound 261] | at least 75% | at least 75%
CC(O)(Cc1ccccc1)c1c(F)cccc1Oc1cnc2c(F)cccc2c1 (racemic) [compound 75] | at least 75% | at least 75%
CC(C)(C=O)C(C)(C)c1ccccc1Oc1cnc2ccccc2c1 [compound 229] | at least 75% | at least 75%
COCc1c(Br)cccc1Oc1cnc2c(F)cccc2c1 [compound 223] | at least 75% | at least 75%

Compound | protective value [1] | protective value [2]
O=Cc1c(Oc2cnc3c(F)cccc3c2)cccc1C(F)(F)F [compound 418] | at least 75% | at least 75%
Cc1nc2c(F)cccc2cc1Oc1cccc(F)c1C(F)(F)C(C)O (centres unmarked) [compound 426] | at least 75% | at least 75%
CC(O)c1c(Oc2cnc3c(F)cccc3c2)ccc(F)c1Br (racemic) [compound 176] | at least 75% | at least 75%
CC(O)c1c(Cl)cccc1Cc1cnc2c(F)cccc2c1 (centres unmarked) [compound 327] | at least 75% | at least 75%
Cc1ccc(Oc2cnc3c(F)cccc3c2)c(C(C)(C)O)c1F [compound 123] | at least 75% | at least 75%
COC(=O)c1c(Cl)cccc1Oc1cnc2c(F)cccc2c1 [compound 406] | at least 75% | at least 75%
CC(C)(C)c1ccccc1Oc1cnc2c(F)cccc2c1 [compound 15] | at least 75% | at least 75%
CC(C)(C#N)c1ccccc1Oc1cnc2c(F)cccc2c1 [compound 272] | at least 75% | at least 75%
CC(C)(O)c1sccc1Oc1cnc2c(F)cccc2c1 [c-4] | at least 75% | at least 75%
CC(C)(C=O)C(C)(C)c1ccccc1Oc1cnc2c(F)cccc2c1 [compound 238] | at least 75% | at least 75%
COC(C(C)=O)c1c(Cl)cccc1Oc1cnc2c(F)cccc2c1 (centres unmarked) [compound 172] | at least 75% | at least 75%
CC(O)c1c(Oc2cnc3c(F)cccc3c2)cccc1C(F)(F)F (centres unmarked) [compound 185] | at least 75% | at least 75%
CC(C)(C)C(C)(O)c1c(F)cccc1Oc1cnc2c(F)cccc2c1 (centres unmarked) [compound 30] | at least 75% | at least 75%
CCCOC1CCc2cccc(Oc3cnc4ccccc4c3)c21 (centres unmarked) [compound 134] | at least 75% | at least 75%
CC(C)(C)c1ccccc1C(O)c1cnc2c(F)cccc2c1 (centres unmarked) [compound 54] | at least 75% | at least 75%
